± gives the standard deviation of the averaged measurements. The full ranking holds about 1,600 compounds; the median of “normalized intracellular growth (luminescence, IQM-normalized) in RAW264.7 macrophages” is about 1, and the lowest 2% start at about 0.43. This is one part of the list.
System: Salmonella enterica serovar Typhimurium SL1344
Assay: normalized intracellular growth (luminescence, IQM-normalized) in RAW264.7 macrophages (fraction of plate interquartile mean); higher = more bacterial growth (less inhibition)
Details: 10 µM

Row | SMILES | normalized intracellular growth (time point: T3 (3 h)) | normalized intracellular growth (time point: Tfinal (~6 h))
1 | CCN(CC)CCOC(=O)C1(C2CCCCC2)CCCCC1 | 0.991 ± 0.038 | 1.13 ± 0.077
2 | C=CC(N)CCC(=O)O (stereo unspecified) | 0.987 ± 0.057 | 0.981 ± 0.23
3 | CCCCCCCCCCCCCCCC(=O)OC/C=C(C)/C=C/C=C(C)/C=C/C1=C(C)CCCC1(C)C | 0.959 ± 0.082 | 1.19 ± 0.14
4 | NS(=O)(=O)c1cc(C2(O)NC(=O)c3ccccc32)ccc1Cl (stereo unspecified) | 0.921 ± 0.076 | 0.987 ± 0.17
5 | CCN[C@H]1CN(CCCOC)S(=O)(=O)c2sc(S(N)(=O)=O)cc21 | 1.02 ± 0.012 | 1.22 ± 0.23
6 | CC(C)c1c(C(=O)Nc2ccccc2)c(-c2ccccc2)c(-c2ccc(F)cc2)n1CC[C@@H](O)C[C@@H](O)CC(=O)O | 1.08 ± 0.051 | 0.942 ± 0.072
7 | CC(=O)OCC(=O)[C@@]1(O)CC[C@H]2[C@@H]3CCC4=CC(=O)CC[C@]4(C)[C@H]3[C@@H](O)C[C@@]21C | 0.958 ± 0.025 | 1.05 ± 0.034
8 | O=C(O)CN1C(=O)c2cccc3cccc(c23)C1=O | 0.914 ± 0.099 | 1.05 ± 0.096
9 | FC(F)(F)C(Cl)Br (stereo unspecified) | 1 ± 0.049 | 1.08 ± 0.18
10 | CCCCN(CCCC)CCCOC(=O)c1ccc(N)cc1 | 1.05 ± 0.083 | 0.945 ± 0.23
11 | Cc1ccc(C(=O)c2ccc(CC(=O)O)n2C)cc1 | 0.913 ± 0.056 | 0.953 ± 0.12
12 | CC(=O)OCC(=O)[C@@]1(O)CC[C@H]2[C@@H]3CCC4=CC(=O)C=C[C@]4(C)[C@@]3(Cl)[C@@H](Cl)C[C@@]21C | 0.961 ± 0.062 | 1.13 ± 0.022
13 | O=C(O)CCCCCCCC(=O)O | 0.962 ± 0.049 | 0.906 ± 0.051
14 | CC(=O)OCC(=O)[C@@]1(O)CC[C@H]2[C@@H]3CCC4=CC(=O)CC[C@]4(C)[C@@]3(F)[C@@H](O)C[C@@]21C | 0.966 ± 0.069 | 0.922 ± 0.076
15 | C[C@@H](O)CN(CCN(C[C@@H](C)O)C[C@@H](C)O)C[C@@H](C)O | 1.03 ± 0.018 | 1.13 ± 0.047
16 | Cc1cn[nH]c1 | 1.09 ± 0.061 | 1.01 ± 0.12
17 | CCCOc1cc(N)ccc1C(=O)OCCN(CC)CC | 1.05 ± 0.05 | 1.08 ± 0.086
18 | OC(Cn1cncn1)(Cn1cncn1)c1ccc(F)cc1F | 1.07 ± 0.013 | 1.09 ± 0.036
19 | NCCc1c[nH]cn1 | 1.01 ± 0.083 | 1.03 ± 0.13
20 | CC[N+](C)(C)c1cccc(O)c1 | 1.02 ± 0.053 | 1.16 ± 0.023
21 | Nc1[nH]cnc2ncnc1-2 | 1.02 ± 0.015 | 0.956 ± 0.02
22 | O.O.O=C([O-])CN(CCN(CC(=O)[O-])CC(=O)O)CC(=O)O.[Na+].[Na+] | 0.978 ± 0.021 | 1.02 ± 0.013

Individual results from the results shown:
Value for Nc1[nH]cnc2ncnc1-2 under normalized intracellular growth (time point: T3 (3 h)): 1.02 ± 0.015
Value for CC(=O)OCC(=O)[C@@]1(O)CC[C@H]2[C@@H]3CCC4=CC(=O)C=C[C@]4(C)[C@@]3(Cl)[C@@H](Cl)C[C@@]21C under normalized intracellular growth (time point: Tfinal (~6 h)): 1.13 ± 0.022

Further records

Row | SMILES | normalized intracellular growth (time point: T3 (3 h)) | normalized intracellular growth (time point: Tfinal (~6 h))
23 | CC(=O)[C@@]1(O)CC[C@H]2[C@@H]3C=C(Cl)C4=CC(=O)[C@@H]5C[C@@H]5[C@]4(C)[C@H]3CC[C@@]21C | 1.06 ± 0.049 | 0.762 ± 0.26
24 | CN1CCC(=C2c3ccccc3C=Cc3ccccc32)CC1 | 0.67 ± 0.066 | 0.829 ± 0.031
25 | N=C(N)NC(=N)NCCc1ccccc1 | 0.992 ± 0.047 | 0.888 ± 0.095
26 | CC(C)(CO)[C@@H](O)C(=O)NCCC(=O)NCCSSCCNC(=O)CCNC(=O)[C@H](O)C(C)(C)CO | 0.981 ± 0.048 | 0.976 ± 0.089
27 | C[C@H]1O[C@H](O[C@H]2[C@H](O)[C@@H](O)[C@@H](O[C@H]3[C@H](O)[C@@H](O)C(O)O[C@@H]3CO)O[C@@H]2CO)[C@H](O)[C@@H](O)[C@@H]1N[C@H]1C=C(CO)[C@@H](O)[C@H](O)[C@H]1O (stereo partly specified) | 0.999 ± 0.083 | 1.33 ± 0.071
28 | CN1CCN(CC/C=C2/c3ccccc3Sc3ccc(S(=O)(=O)N(C)C)cc32)CC1 | 1.14 ± 0.045 | 1.17 ± 0.041
29 | Cc1nccnc1N1CCCCC1 | 1.09 ± 0.057 | 0.933 ± 0.023
30 | NNCCc1ccccc1 | 0.956 ± 0.042 | 0.864 ± 0.26
31 | CCCc1cc(C(N)=S)ccn1 | 1.05 ± 0.039 | 0.979 ± 0.13
32 | CC(=O)S[C@@H]1CC2=CC(=O)CC[C@]2(C)[C@H]2CC[C@@]3(C)[C@@H](CC[C@@]34CCC(=O)O4)[C@H]12 | 0.97 ± 0.046 | 0.99 ± 0.073
33 | CC(Cc1cccc(C(F)(F)F)c1)NCCOC(=O)c1ccccc1 (stereo unspecified) | 1.01 ± 0.019 | 1.09 ± 0.23
34 | O=C1OCCN1/N=C/c1ccc([N+](=O)[O-])o1 | 0.945 ± 0.017 | 0.928 ± 0.024
35 | NC(=O)c1ccc([N+](=O)[O-])cc1Cl | 1.06 ± 0.052 | 1.18 ± 0.017
36 | CC(C)[C@H](N)C(=O)OCC(CO)OCn1cnc2c(=O)nc(N)[nH]c21 (stereo partly specified) | 1.03 ± 0.044 | 0.89 ± 0.12
37 | Cc1c(O)c(=O)ccn1C | 1.02 ± 0.096 | 0.877 ± 0.29
38 | CCC(=O)O[C@]1(C(=O)CCl)[C@@H](C)C[C@H]2[C@@H]3CCC4=CC(=O)C=C[C@]4(C)[C@@]3(F)[C@@H](O)C[C@@]21C | 0.947 ± 0.04 | 1.04 ± 0.13
39 | c1ccc([C@H]2CN3CCSC3=N2)cc1 | 0.971 ± 0.087 | 1.03 ± 0.2
40 | COc1ccc(C2CNC(=O)C2)cc1OC1CCCC1 (stereo unspecified) | 0.991 ± 0.071 | 0.959 ± 0.33
41 | NC(=O)C(c1ccccc1)(c1ccccc1)[C@@H]1CCN(CCc2ccc3c(c2)CCO3)C1 | 1.07 ± 0.046 | 0.992 ± 0.29
42 | CCCNCC(O)COc1ccccc1C(=O)CCc1ccccc1 (stereo unspecified) | 1.04 ± 0.066 | 1.03 ± 0.044
43 | COc1ccccc1OCC(O)CN1CCN(CC(=O)Nc2c(C)cccc2C)CC1 (stereo unspecified) | 1.01 ± 0.034 | 1.05 ± 0.033

— the supplement of paper PMC6331611
